From paper PMC9788671
Results are given in words; binding and its absence hold for the method and conditions named. In cells and extracts the contact can be indirect. Here binding means that the protein was enriched with, or labelled near, the bait; the list need not be complete. Values belong to the binder of their own block, whether it stands above or below them.

By UniProt entry, the sequences of proteins in these tests, tags left out.
UniProt Q9NZV8: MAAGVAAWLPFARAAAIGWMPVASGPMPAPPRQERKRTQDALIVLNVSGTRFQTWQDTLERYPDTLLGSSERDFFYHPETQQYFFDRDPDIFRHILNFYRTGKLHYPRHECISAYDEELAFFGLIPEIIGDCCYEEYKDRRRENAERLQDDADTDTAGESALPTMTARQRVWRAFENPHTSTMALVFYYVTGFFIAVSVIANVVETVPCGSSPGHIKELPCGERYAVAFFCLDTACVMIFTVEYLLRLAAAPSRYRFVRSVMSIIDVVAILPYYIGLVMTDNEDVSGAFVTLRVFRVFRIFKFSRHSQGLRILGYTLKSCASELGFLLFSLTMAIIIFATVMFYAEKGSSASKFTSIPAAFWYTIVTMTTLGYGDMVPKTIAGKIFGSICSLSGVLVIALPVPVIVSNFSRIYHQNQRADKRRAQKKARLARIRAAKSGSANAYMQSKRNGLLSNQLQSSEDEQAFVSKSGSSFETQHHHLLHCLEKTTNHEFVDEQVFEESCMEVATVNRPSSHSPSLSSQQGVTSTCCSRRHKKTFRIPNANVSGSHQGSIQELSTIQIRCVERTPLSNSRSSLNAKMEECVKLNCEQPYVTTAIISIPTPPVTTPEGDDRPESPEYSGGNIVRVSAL

How the values were obtained:
TAP-Kv4.2 (human) [1] = target: TAP-Kv4.2 (human) (UniProt Q9NZV8); experiment: affinity purification with mass spectrometry; TAP-Kv4.2 expressed by lentivirus in rat hippocampal neurons, harvested at DIV14; strong lysis buffer (1% Triton X-100, 0.5% deoxycholate in PBS, pH 7.4); streptavidin resin, then calmodulin resin; gel cut into high and low molecular weight fragments; no MS of the control sample
TAP-Kv4.2 (human) [2] = target: TAP-Kv4.2 (human) (UniProt Q9NZV8); experiment: affinity purification with mass spectrometry; TAP-Kv4.2 expressed by lentivirus in rat hippocampal neurons, harvested at DIV14; weak lysis buffer of the kit (0.1% NP-40); streptavidin resin, then calmodulin resin; gel cut into high and low molecular weight fragments; no MS of the control sample

B3: Mogs (protein, UniProt O88941 1-834)
chain: MARGERRRRAAAAEGARPLERARGAGRRDGRAGGARGSAGGAALAVVVLALAFGLSGRWVLAWLGVRRALTLHPAPSALPPDSSSPAVAPEFFWGTYRPHVYFGMKTRSPKPLLTGLMWAQQGATPGTPPKLRHTCEQGDGVGPYGWEFHDGLSFGRQHIYDGALRLTTEFVKRSGGHHGGDWSWRVTVEPQASGTPSFPLVSLFFYVVTDGQEVLLPEVGAKGQLKFISGHTSELGDFRLTLLPPTTPGDTVPKHGSYNVFWSSNPGLPLLTDMVKSHLNSWFHHRPPGASPERYLGLPGSLKWEERGPSGQGQFLVQQVTLKAPFSVEFVFESGSARTGRDQASEQLVGGQLTRALESHAAAFKERFERTFQLKEKGLSPEEQALGQVALSGLLGGIGYFYGQGLVLPDTGMEGSEQKMDPSLFPPVPLFSGVPSRSFFPRGFLWDEGFHQLVVQRWDPHLTREALGHWLGLLNADGWIGREQILGDEARARVPPEFLVQRAAHANPPTLLLPVIHMLEGRAPEDLAFLRRAFPRLHAWFSWLHQSQAGPVPLSYRWRGRDLALPTLLNPKTLPSGLDDYPRASHPSAAERHLDLRCWVTLGARVLSQLAEELGETEAAAELGPLAASLEAAGSLDELHWAPELGVFADFGNHTKAVQLKSRPPQGLVRVVGRPPARLQYVDALGYVSLFPLLLQLLEPSSPRLGPLLDVLADSRHLWSPFGLRSLSASSLFYKQRNTEHDPPYWRGAVWLNINYLALGALHHYGRVEGPHKVQAAKLYRELRANVVSNVRQQYQATGFLWEQYSDQDGRGMGCRPFQGWTSLVLLIMAEEY
binding (TAP-Kv4.2 (human) [2]): binds

B4: Ddx1 (protein, UniProt Q641Y8 1-740)
chain: MAAFSEMGVMPEIAQAVEEMDWLLPTDIQAESIPLILGGGDVLMAAETGSGKTGAFSIPVIQIVYETLKDQQEGKKGKATIKTGASVLNKWQMNPYDRGSAFAIGSDGLCCQSREVKEWHGCRATRGLLRGKHYYEVSCHDQGLCRVGWSTMQASLDLGTDKFGFGFGGTGKKSHNKQFDNYGEEFTMHDTIGCYLDIDKGHVKFSKNGKDLGLAFEIPAHIKNQALFPACVLKNAELKFNFGEEEFKFPPKDGFVALSKAPDSYVVKSQHTGNAQVSQTKFLPNAPKALIVEPSRELAEQTLNNVKQFKKYIDNPKLRELLIIGGVAARDQLSVLDNGVDIVVGTPGRLDDLVSTGKLNLSQVRFLVLDEADGLLSQGYSDFINRMHNQIPQITSDGKRLQVIVCSATLHSFDVKKLSEKIMHFPTWVDLKGEDSVPDTVHHVVVPVNPKTDRLWERLGKNHIRTDDVHAKDNTRPGANSPEMWSEAIKILKGEYAVRAIKEHKMDQAIIFCRTKIDCDNLEQYFMQQGGGPDKKGHQFSCVCLHGDRKPHERKQNLERFKKGDVRFLICTDVAARGIDIHGVPYVINVTLPDEKQNYVHRIGRVGRAERMGLAISLVATEKEKVWYHVCSNRGKGCYNTRLKEDGGCTIWYNEMQLLSEIEEHLNCTISQVEPDIKVPVDEFDGKVTYGQKRAAGGGNYKGHVDILAPTVQELAALEKEAQTSFLHLGYLPNQLFRTF
binding (TAP-Kv4.2 (human) [2]): binds

B6: Atad3 (protein, UniProt Q3KRE0 1-591)
chain: MSWLFGIKGPKGEGTGPPLPLPPAQPGAESGGDRGAGDRPSPKDKWSNFDPTGLERAAKAARELEHSRHAKEALNLAQMQEQTLQLEQQSKLKEYEAAVEQLKSEQIRVQAEERRKTLNEETRQHQARAQYQDKLARQRYEDQLKQQQLLNEENLRKQEESVQKQEAIRRATVEREMELRHKNEMLRVEAEARARAKADRENADIIREQIRLKAAEHRQTILESIRTAGTLFGEGFRAFVTDWDKVTATVAGLTLLAVGVYSAKNATSVAGRYIEARLGKPSLVRETSRISVLEALRHPIQVSRRLVSRPQDALEGVILSPSLEARVRDIAIATRNTKKNKSLYRNVLMYGPPGTGKTLFAKKLALHSGMDYAIMTGGDVAPMGREGVTAMHKVFDWASTSRRGLLLFVDEADAFLRKRATEKISEDLRATLNAFLHRTGQHSNKFMLVLASNQPEQFDWAINDRIDEMVCFALPQREERERLVRMYFDKYVLKPATEGKQRLKVAQFDYGKKCSEVAQLTAGMSGREIAQLAVAWQAMAYSSEDGVLTEAMMDARVQDAVQQHQQKMQWLKVERPDSEASKPPHPSLLSC
binding (TAP-Kv4.2 (human) [2]): binds

More lines, now with the values ahead:

binding (TAP-Kv4.2 (human) [1]): binds
B1: Ylpm1 (protein, UniProt P0CB49 1-1376)
chain: MYPNWGRYGGSSHYPPPPVPPPPPPVALPEASPGPGYSSSTAPAAPSSSGFMSFREQHLAQLQQLQQMHQKQMQCVLQPHHLPPPPLPPPPVMPGGGYGDWQPPPPPMPPPPGPALSYQKQQQYKHQMIHHQRDGPPGLVPMELESPPESPPVPPGSYMPPSQSYMPPPQPPPSYYPPSSAQPYLPPAQPSPSKPQLPPPPPSIPSGNKTTIQQEPLETGAKNKNAEQKQAAPEPDPSTMTPQEQQQYWYRQHLLSLQQRTKVHLPGHKKGLVTAKDVPEPIKEEAPVPATSQIAEPLAAEEPPLPPPNEEMPPPLPPEEPQNNSSEMSEDPEEDARLKQLQAAAAHWQQHQQHRVGFQYQGIMQRHTQLQQILQQYQQVIQHSPHIQTMSLDVQLRHYEMQQQQFQRLYQEWEREFQLWEEQLHSYPHKDQLEEYEKQWKSWQGHMRATQTYLQEKVTSFQAVKNQYMGNMAMPPPFVPYSQMPPPLPTMPPPVLPPSLPPPVMPPALPSTIPPPGMPPPVMPPSLPTSVPPPGMPPSLSSAVLPPPSLSSAGPPPVLPPPSLSGAPPVLPLPPLSSATPPPGIPPPGVPQGMPPQLTAPVPPASSSQNSQVPEKPRQALLPTPVSFGSTPPSPYHPPPQSEQGNSKPLNKVFSSEQGLGESSSALSQSVIAAKDTPVKSGGLLADPPKGSFLEGPRGPREQKEQLQKLKDFGSEPQTADHLPPPDSRLQNTSRPGMYPPPGSYRPPPPMGKPPGSIVRPSAPPARSCVPMTRPPVPIPPPPPPPPPPPPPPPVIKPKTSSVKQERWDEDSFFGLWDTNDDQGLNSEFKRDTAAIPSAPVLPPPPVHPSIPPPGPMPMGMPPMSKPPPVQHTVDYGHGRDMPTNKVEQIPYGERITLRPDPLPERSAFDADHAGQRDRYDRDRDREPYFDRQSNMTDHRDFKRDRETHRDRDRVLDYERDRFDRERRPRDDRNQSYRDKKDHSSSRRGGFDRPSYDRKSDRPPYEGPPMFGGERRTYPEERMPLPAPSLGHQPPPVPRVEKKPESKNVDDILKPPGRESRPERIVVIMRGLPGSGKTHVAKLIRDKEVEFGGPAPRVLSLDDYFIAEVEKEEKDPDSGKKVKKKVMEYEYEADMEETYRTSMFKTFKKTLDDGFFPFIILDAINDRVRHFDQFWSAAKTKGFEVYLAEMSADNQTCGKRNIHGRKLKEINKMAEHWEAAPRHMMRLDIRSLLQDAAIEEVEMEDFDANIEDQKEEKKDAEEEESELGYIPKSKWEMDTSEAKLDKLDGLRTGTKRKRDWEAIASRMEDYLQLPDDYETRASEPGKKRVRWADLEEKKDADRKRAIGFVVGQTDWEKITDESGHLAERALNRTKYI

binding (TAP-Kv4.2 (human) [2]): binds
B2: Slc1a3 (protein, UniProt P24942 1-543)
chain: MTKSNGEEPRMGSRMERFQQGVRKRTLLAKKKVQNITKEDVKSYLFRNAFVLLTVSAVIVGTILGFALRPYKMSYREVKYFSFPGELLMRMLQMLVLPLIISSLVTGMAALDSKASGKMGMRAVVYYMTTTIIAVVIGIIIVIIIHPGKGTKENMYREGKIVQVTAADAFLDLIRNMFPPNLVEACFKQFKTSYEKRSFKVPIQANETLLGAVINNVSEAMETLTRIREEMVPVPGSVNGVNALGLVVFSMCFGFVIGNMKEQGQALREFFDSLNEAIMRLVAVIMWYAPLGILFLIAGKILEMEDMGVIGGQLAMYTVTVIVGLLIHAVIVLPLLYFLVTRKNPWVFIGGLLQALITALGTSSSSATLPITFKCLEENNGVDKRITRFVLPVGATINMDGTALYEALAAIFIAQVNNFDLNFGQIITISITATAASIGAAGIPQAGLVTMVIVLTSVGLPTDDITLIIAVDWFLDRLRTTTNVLGDSLGAGIVEHLSRHELKNRDVEMGNSVIEENEMKKPYQLIAQDNEPEKPVADSETKM

binding (TAP-Kv4.2 (human) [2]): binds
B5: Rpn1 (protein, UniProt P07153 23-605)
chain: SSEAPPLVNEDVKRTVDLSSHLAKVTAEVVLAHPGGGSTARASSFVLALEPELESRLAHLGVQVKGEDEEDNNLEVRETKMKGKSGRFFTVKLPVALDPGSKISIVVETVYTHVLHPYPTQITQSEKQFVVFEGNHYFYSPYPTKTQTMRVRLASRNVESHTKLGNPSRSEDILDYGPFKDIPAYSQDTFKVHYENNSPFLTITSMTRVIEVSHWGNIAVEENVDLKHTGAVLKGPFSRYDYQRQPDSGISSIRSFKTILPAAAQDVYYRDEIGNVSTSHLLILDDSVEMEIRPRFGLFGGWKTHYIVGYNLPSYEYLYNLGDQYALKMRFVDHVFDEQVIDSLTVKIILPEGAKNIQVDSPYDISRAPDELHYTYLDTFGRPVIVAYKKNLVEQHIQDIVVHYTFNKVLMLQEPLLVVAAFYILFFTVIIYVRLDFSITKDPAAEARMKVACITEQVLTLVNKRLGLYRHFDETVNRYKQSRDISTLNSGKKSLETEHKAVTSEIAVLQSRLKTEGSDLCDRVSEMQKLDAQVKELVLKSAVEAERLVAGKLKKDTYIENEKLSSGKRQELVTKIDHILDAL
